Reference: PubChem BioAssay AID2417 (National Center for Advancing Translational Sciences (NCATS), 2010)
Out of some 140,000 compounds screened, about 4,300 (3.1%) were called active. The inconclusive results got no clear call from the source; some entries with a clear call stand among them for comparison.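 Rule for the calls: active = readout at or below -70, meaning at least 70% loss of cells showing the perinucleolar compartment, a nuclear body marking cancer cells; inconclusive = readout between -30 and a set limit; inactive = the rest.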

Assay: High Content Assay for Compounds that inhibit the Assembly of the Perinucleolar Compartment;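 note: plate controls were DMSO wells for no effect and camptothecin positive control wells for full effect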
Conditions: PC3M PTB-GFP, PNC prevalence imaging, 16 h; at 10 µM; active compounds read low
Outline: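 Compounds are pinned in duplicate onto adhered PC3M cells stably expressing GFP-tagged PTB and incubated 16 h at 37 C. Cells are then fixed, nuclei stained with Hoechst, and PNC-positive cells counted.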

| SMILES | activity change (PNC), negative = inhibition |
| --- | --- |
| Cc1ccc(SCCC(=O)OCC(=O)Nc2ncc(Cl)cc2Cl)cc1 | inactive: -2.97% |
| CC(=O)c1cccc(NC(=O)C2CCCCC2)c1 | inactive: 2.71% |
| Cc1ccc2nc(-c3cccc(S(=O)(=O)N(C)C)c3)cn2c1 | inactive: -20.3% |
| CC1(C)CC(=O)C=C(Nc2ccc(S(N)(=O)=O)cc2)C1 | inconclusive: -41% |
| COCCn1c(C)cc(C(=O)COC(=O)c2ccc(N3CCCC3=O)cc2)c1C | inconclusive: -64.3% |
| COc1cc(C2NC(=S)NC(C)=C2C(=O)c2ccccc2)ccc1O (stereo unspecified) | inactive: -0.63% |
| Cn1c(SCC(=O)Nc2sc3c(c2C#N)CCC3)nnc1C1COc2ccccc2O1 (stereo unspecified) | active: -81.4% |
| CCCCCn1nc(C)c(/C=N\NC(=O)c2cc(C)oc2C)c1C | inconclusive: -72.1% |
| COc1cc(NC(=O)CCN2CCN(c3ccccc3F)CC2)cc(OC)c1 | inactive: -6.62% |
| CC(=O)c1ccccc1OCCOCCOc1ccccc1C(C)=O | inactive: 23.2% |
| Cc1ccc(NC(=O)CSc2nc3ccccc3c(=O)n2Cc2cccs2)cc1 | inactive: -7.15% |
| CS(=O)(=O)N1CCN(C(=O)c2ccc(-c3ccccc3)cc2)CC1 | active: -83.2% |
| COc1ccc([N+](=O)[O-])cc1/C=N/NC(=O)CNC(=O)c1cccc(F)c1 | inconclusive: -52.1% |
| O=C(Nc1nccs1)c1sc2cc(Cl)ccc2c1Cl | inactive: 56.9% |
| CCC(=O)Nc1nnc(Sc2ccc(N(C)C)cc2)s1 | inconclusive: -31.2% |
| O=C(Cc1cccs1)Nc1ccc(-c2nc3ccccc3[nH]2)cc1 | inconclusive: -54.4% |
| CC(C)C(c1nnnn1Cc1cccs1)N1CCN(C2CCCC2)CC1 (stereo unspecified) | inconclusive: -51.8% |
| Cc1c2cc(O)c(=O)cc-2oc2cc(O)c(O)cc12 | inactive: -3.2% |
| Cc1cc(NC(=O)Cn2nc(C(F)(F)F)c3c2CCC3)no1 | inactive: 10.7% |

| SMILES | activity change (PNC), negative = inhibition |
| --- | --- |
| C[C@@H](C(=O)NCC1CC1)[C@H]1C[C@]1(C)[C@H](NC(=O)OCc1ccccc1)c1ccccc1 | inactive: -1.48% |
| O=C(CCn1c(=O)[nH]c2ccccc2c1=O)Nc1ccccc1 | inconclusive: -40.5% |
| CSCCC(NC(=O)OC(C)(C)C)C(=O)NC(C(=O)NC(CC(C)C)C(N)=O)C(C)C (stereo unspecified) | inconclusive: -45.4% |
| COc1ccc(NC(=O)CC2C(=O)N(c3ccc(OC)cc3)C(=O)N2CCN2CCN(C)CC2)cc1 (stereo unspecified) | inconclusive: -56% |
| COc1cccc(/C=C2\C(=O)C(=O)c3ccccc32)c1 | inconclusive: -38.6% |
| Cc1ccc2nc(NC(=O)C3CCCN(S(=O)(=O)c4cnc[nH]4)C3)sc2c1 (stereo unspecified) | inconclusive: -51.3% |
| CCOC(=O)N1CCN(C(=O)c2oc(=O)c3ccccc3c2-c2ccc(C)cc2)CC1 | inconclusive: -58.9% |
| CC1(C)CC(=O)c2cc(C(=O)O)c(=O)n(-c3ccccc3)c2C1 | inconclusive: -68% |
| CCN(c1ccc(NC(=O)COC(=O)c2ccc(C)c(S(=O)(=O)N3CCOCC3)c2)cc1)C(C)C | inconclusive: -61.3% |
| CCc1ccc(NC(=O)CSc2nnc(Cn3c(=O)sc4ccccc43)n2C)cc1 | inconclusive: -36.8% |
| CCOC(=O)Cc1csc(SCc2cc(=O)oc3cc(O)ccc23)n1 | inconclusive: -30.7% |
| CN(C)S(=O)(=O)c1cccc(NC(=O)COC(=O)c2cc(-c3cccc(Br)c3)nc3ccccc23)c1 | inconclusive: -37.9% |
| CCN(CC(O)CON=C1c2ccccc2-c2ccccc21)S(=O)(=O)c1ccc(Cl)cc1 (stereo unspecified) | inconclusive: -30.5% |
| CCOc1ccc(/C=N/OCC(=O)Nc2ccc(OCc3ccccc3)cc2)cc1OC | inconclusive: -51.6% |
| N#Cc1cc2c(nc1SCc1cccnc1)CCCC2 | inconclusive: -49.6% |
| CCOc1cc2c(cc1OCC)C(c1ccccc1)N(c1ccccc1)C(=O)C2 (stereo unspecified) | active: -92.9% |
| CC(C)C(=O)NC(=S)Nc1ccc(S(=O)(=O)N2CCN(C)CC2)cc1 | inactive: -5.83% |
| Cc1cccc(NC(=O)CCc2ccc(C)o2)c1 | active: -80.2% |
| CC(OC(=O)c1nn(C(C)C)c(=O)c2ccccc12)C(=O)Nc1ncc(Cl)cc1Cl (stereo unspecified) | inactive: 20.9% |

| SMILES | activity change (PNC), negative = inhibition |
| --- | --- |
| COc1ccc(NC(=O)C2=C(C)NC(=O)NC2c2cccc(OC)c2OC)c(OC)c1 (stereo unspecified) | inconclusive: -65.8% |
| O=C(CCCCCNC(=O)c1ccccc1)N/N=C/c1ccc(O)cc1O | inconclusive: -31.4% |
| CCOC(=O)Cc1[nH]nc2c1C(c1ccoc1)C(C#N)=C(N)O2 (stereo unspecified) | inconclusive: -57.7% |
| O=C(c1ccccc1)c1c[nH]c(C(=O)NCCCn2ccnc2)c1 | inactive: -27.4% |
| COCCN(C(=O)CSc1nnc(Nc2ccccc2F)s1)c1c(N)n(Cc2ccccc2)c(=O)[nH]c1=O | inconclusive: -39% |
| CCc1nnc(NC(=O)CSc2nnc(CSc3nc(C)cc(C)n3)n2C)s1 | inconclusive: -48.2% |
| Clc1ccc(-c2nnc(SCc3nc4ccccc4s3)o2)cc1 | inconclusive: -30.3% |
| COC(=O)Cn1c(=NC(=O)c2ccc([N+](=O)[O-])s2)sc2cc(Br)ccc21 | active: -93.4% |
| Cc1ccc2c(c1)cc1c(=O)[nH]ncn12 | inactive: 69.8% |
| Cc1nn(-c2ccccc2)c(/N=C/c2ccccc2O)c1-c1ccccc1 | inconclusive: -42.3% |
| O=C(NC1=NCCS1)C12CC3CC(C1)CC(C(=O)NC1=NCCS1)(C3)C2 | inactive: 25.3% |
| c1ccc(-n2cnc3cc(NCc4ccncc4)ccc32)cc1 | inconclusive: -30.1% |
| COc1ccc(COC(=O)c2ccc(N3CCCC3=O)cc2)cc1F | inactive: -22.5% |
| CCNC(=O)CSc1nc2ccccc2c(=O)n1CCCOC(C)C | inconclusive: -79.2% |
| Cc1ccc(C2CC(=O)c3cnc(NC(=O)c4ccco4)nc3C2)cc1 (stereo unspecified) | inactive: 9.6% |
| CCOC(=O)N1CCN(c2ncnc3c2cnn3-c2ccc(Cl)cc2)CC1 | inactive: 28% |
| CCOC(=O)CN1C(=O)CN(c2ccc(C)c(C)c2)C1=O | inconclusive: -74.7% |
| COc1cccc(C2C(C#N)=C(N)OC3=C2C(=O)CCC3)c1OC(=O)c1ccco1 (stereo unspecified) | inconclusive: -57.6% |

Reformatted: entries from further up.
SMILES | activity change (PNC), negative = inhibition
CN(C)S(=O)(=O)c1cccc(NC(=O)COC(=O)c2cc(-c3cccc(Br)c3)nc3ccccc23)c1 | inconclusive: -37.9%
CCN(CC(O)CON=C1c2ccccc2-c2ccccc21)S(=O)(=O)c1ccc(Cl)cc1 (stereo unspecified) | inconclusive: -30.5%
CCOc1ccc(/C=N/OCC(=O)Nc2ccc(OCc3ccccc3)cc2)cc1OC | inconclusive: -51.6%
N#Cc1cc2c(nc1SCc1cccnc1)CCCC2 | inconclusive: -49.6%
